# Results as given in US9169489.
# Changes are numbered by the printed parent chain. The exact form of at least one protein or probe is not confirmed. At least one result comes from cells or an extract, where the contact may be indirect. For part of these data: A weaker result is weaker than the reference pair of the same experiment. Protein sequences can lack the tags named with them.
# Key:
# [1] = target: T1, GRP7(R49K) (Arabidopsis thaliana) (UniProt Q03250); experiment: binding assay; details: RNA-IP qRT-PCR; strongly impaired; protein in cells; protein details: HA
# T1 sequence (limits assumed): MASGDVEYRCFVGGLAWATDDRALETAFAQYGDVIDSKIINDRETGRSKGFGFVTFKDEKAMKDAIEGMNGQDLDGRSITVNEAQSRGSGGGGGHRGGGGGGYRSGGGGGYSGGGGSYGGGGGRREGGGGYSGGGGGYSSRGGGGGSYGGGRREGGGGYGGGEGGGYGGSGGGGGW
# [2] = target: T2, GRP7 (Arabidopsis thaliana) (UniProt Q03250); experiment: binding assay; details: protein in cells
# T2 sequence (limits assumed): T1 sequence (limits assumed) with K49R
sequence,measurement,setting,value
CUUCGUCUACAUCGUUCUACACAUCUCACUGCUCACUACUCUCACUGUAAUCCCUUAGAUCUUCUUUUCAAAUUUCAAUGGCGUCCGGUGAUGUUGAGUAUCGGUGCUUCGUUGGAGGUCUAGCAUGGGCCACUGAUGACAGAGCUCUUGAGACUGCCUUCGCUCAAUACGGCGACGUUAUUGAUUCCAAGAUCAUUAACGAUCGUGAGACUGGAAGAUCAAGGGGAUUCGGAUUCGUCACCUUCAAGGAUGAGAAAGCCAUGAAGGAUGCGAUUGAGGGAAUGAACGGACAAGAUCUCGAUGGCCGUAGCAUCACUGUUAACGAGGCUCAGUCACGAGGAAGCGGUGGCGGCGGAGGCCACCGUGGAGGUGGUGGCGGUGGAUACCGCAGCGGCGGUGGUGGAGGUUACUCCGGUGGAGGUGGUAGCUACGGAGGUGGCGGCGGUAGACGCGAGGGUGGAGGAGGAUACAGCGGCGGCGGCGGCGGUUACUCCUCAAGAGGUGGUGGUGGCGGAAGCUACGGUGGUGGAAGACGUGAGGGAGGAGGAGGAUACGGUGGUGGUGAAGGAGGAGGUUACGGAGGAAGCGGUGGUGGUGGAGGAUGGUAAUUCCUUUAAUUAGGUUUGGGAUUACCAAUGAAUGUUCUCUCUCUCGCUUGUUAUGCUUCUACUUGGUUUUGUGUGUUCUCUAUUUUGUUCUGGUUCUGCUUUAGAUUUGAUGUAACAGUUCGUGAUUAGGUAUUUUGGUAUCUGGAAACGUAAUGUUAAGUCACUUGUCAUUCUCUAAAUAACAAAUUUCUUCGGAGAUAUUAUCUCUGUUGAUUGAUUCUAUCAUCU [GRP7 mRNA],binding result,[1],binds more weakly
same,binding result,"[2]; RNA-IP qRT-PCR, reduced when HopU1 co-expressed, protein details: GFP (C-terminal)",binds
same,binding result,"[2]; UV-crosslink RNA-IP qRT-PCR, protein details: HA (C-terminal)",binds
